{"source": "PubChem BioAssay AID1259254 (NCATS, 2017)", "aim": "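Finding genes that stop cells copying their DNA twice in one cycle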 (primary screen)", "cells": "human HCT116 colorectal cancer cells", "knock-down reagent": "single siRNA against human genes", "timing": "3 days", "measured": "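Nuclei stained with Hoechst and imaged; cell-cycle phase assigned by DNA content; G2 share scaled per plate, non-targeting siRNA 0%, GMNN siRNA 100%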", "scale": "G2 robust z-score and G2 cells, % of GMNN control: higher = more G2 cells, more excess DNA replication", "rule for the call": "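An siRNA counts as active if its G2 robust z-score lies at least 5 MADs above the screen median; here such calls match roughly 38% of GMNN control or more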", "note": "This is a random part of about 59,000 reagents. About 1,550 of all reagents (2.6%) count as active. 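G2 share is only a proxy for re-replication; each gene was hit by three separate siRNAs, and active genes were retested.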 The numbers tell different reagents against one gene apart. Not all columns of the deposit are shown. No sequences are given here. Not given: the amount of reagent."}
{"target gene":"MPC1","siRNA no.":1,"G2 robust z-score":1.92,"G2 cells, % of GMNN control":16.4,"outcome":"inactive"}
{"target gene":"MPC1","siRNA no.":2,"G2 robust z-score":1.64,"G2 cells, % of GMNN control":14.5,"outcome":"inactive"}
{"target gene":"MPC1","siRNA no.":3,"G2 robust z-score":-0.623,"G2 cells, % of GMNN control":-1.42,"outcome":"inactive"}
{"target gene":"KIAA1671","siRNA no.":1,"G2 robust z-score":0.0795,"G2 cells, % of GMNN control":3.53,"outcome":"inactive"}
{"target gene":"KIAA1671","siRNA no.":2,"G2 robust z-score":1.72,"G2 cells, % of GMNN control":15.1,"outcome":"inactive"}
{"target gene":"KIAA1671","siRNA no.":3,"G2 robust z-score":-0.88,"G2 cells, % of GMNN control":-3.23,"outcome":"inactive"}
{"target gene":"KIAA1671","siRNA no.":4,"G2 robust z-score":0.934,"G2 cells, % of GMNN control":9.54,"outcome":"inactive"}
{"target gene":"KIAA1671","siRNA no.":5,"G2 robust z-score":-0.433,"G2 cells, % of GMNN control":-0.0823,"outcome":"inactive"}
{"target gene":"KIAA1671","siRNA no.":6,"G2 robust z-score":-0.473,"G2 cells, % of GMNN control":-0.361,"outcome":"inactive"}

Entries listed so far whose gene name begins with M or m (3):
{"target gene":"MPC1","siRNA no.":1,"G2 robust z-score":1.92,"G2 cells, % of GMNN control":16.4,"outcome":"inactive"}
{"target gene":"MPC1","siRNA no.":2,"G2 robust z-score":1.64,"G2 cells, % of GMNN control":14.5,"outcome":"inactive"}
{"target gene":"MPC1","siRNA no.":3,"G2 robust z-score":-0.623,"G2 cells, % of GMNN control":-1.42,"outcome":"inactive"}

Next entries:
{"target gene":"KHDC1","siRNA no.":1,"G2 robust z-score":-0.743,"G2 cells, % of GMNN control":-2.26,"outcome":"inactive"}
{"target gene":"KHDC1","siRNA no.":2,"G2 robust z-score":-0.52,"G2 cells, % of GMNN control":-0.688,"outcome":"inactive"}
{"target gene":"KHDC1","siRNA no.":3,"G2 robust z-score":0.109,"G2 cells, % of GMNN control":3.73,"outcome":"inactive"}
{"target gene":"SIRAL2","siRNA no.":1,"G2 robust z-score":-0.722,"G2 cells, % of GMNN control":-2.11,"outcome":"inactive"}
{"target gene":"SIRAL2","siRNA no.":2,"G2 robust z-score":-0.672,"G2 cells, % of GMNN control":-1.76,"outcome":"inactive"}
{"target gene":"SIRAL2","siRNA no.":3,"G2 robust z-score":-0.563,"G2 cells, % of GMNN control":-0.994,"outcome":"inactive"}
{"target gene":"TMEM11","siRNA no.":1,"G2 robust z-score":3.33,"G2 cells, % of GMNN control":26.4,"outcome":"inactive"}
{"target gene":"TMEM11","siRNA no.":2,"G2 robust z-score":-0.946,"G2 cells, % of GMNN control":-3.69,"outcome":"inactive"}
{"target gene":"TMEM11","siRNA no.":3,"G2 robust z-score":1.25,"G2 cells, % of GMNN control":11.8,"outcome":"inactive"}
{"target gene":"OR6K2","siRNA no.":1,"G2 robust z-score":-0.863,"G2 cells, % of GMNN control":-3.1,"outcome":"inactive"}
{"target gene":"OR6K2","siRNA no.":2,"G2 robust z-score":6.61,"G2 cells, % of GMNN control":49.5,"outcome":"active"}
{"target gene":"OR6K2","siRNA no.":3,"G2 robust z-score":1.79,"G2 cells, % of GMNN control":15.6,"outcome":"inactive"}
{"target gene":"ARAF","siRNA no.":1,"G2 robust z-score":-0.693,"G2 cells, % of GMNN control":-1.91,"outcome":"inactive"}
{"target gene":"ARAF","siRNA no.":2,"G2 robust z-score":1.2,"G2 cells, % of GMNN control":11.4,"outcome":"inactive"}
{"target gene":"ARAF","siRNA no.":3,"G2 robust z-score":-0.174,"G2 cells, % of GMNN control":1.75,"outcome":"inactive"}
